Test results as given in article PMC3617406 (Molecular pharmaceutics, 2013).

Molecular target: T1, human ASBT (Homo sapiens, UniProt Q12908)
T1 sequence (Q12908 1-348): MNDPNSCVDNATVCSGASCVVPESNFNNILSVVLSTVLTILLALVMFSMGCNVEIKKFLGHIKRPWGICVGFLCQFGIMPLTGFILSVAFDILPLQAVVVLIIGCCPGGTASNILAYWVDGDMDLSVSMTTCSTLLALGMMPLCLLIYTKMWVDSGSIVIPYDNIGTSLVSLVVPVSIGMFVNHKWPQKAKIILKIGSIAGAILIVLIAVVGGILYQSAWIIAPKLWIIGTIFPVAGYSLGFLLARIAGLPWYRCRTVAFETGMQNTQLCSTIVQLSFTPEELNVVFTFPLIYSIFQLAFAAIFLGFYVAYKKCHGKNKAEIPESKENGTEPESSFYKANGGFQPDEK
Format: cell-based
Conditions: read-out: Estimated Ki for ASBT

- potency estimated from few doses: 89.9 ± 34 µM
SMILES: COC(=O)C1=C(C)NC(C)=C(C(=O)OC)C1c1ccccc1[N+](=O)[O-] [Nifedipine]
